Test results: US20140170158A1, “COMPOSITIONS AND METHODS FOR TREATING OR PREVENTING LUNG DISEASES” (THE JOHNS HOPKINS UNIVERSITY, priority 2012, published 2014)

Test system: chronic CS-exposed AKR/J mice
Test: Morphometric analysis of airspace dimension and airway attachments in chronic CS-induced emphysema model
Type: in vivo
Details: room air-exposed mice, 2 months treatment, compared with untreated controls
Method: Six- to eight-week-old AKR/J male mice were divided into 3 groups. […] CS exposure was carried out (2 hours per day, 5 days per week) by burning 2R4F reference cigarettes (University of Kentucky, […], Ky., USA) using a smoking machine (Model TE-10; Teague Enterprises) for 6 to 7 weeks. The average concentration of total suspended particulates and carbon monoxide was 90 mg/m and 350 ppm, respectively, which was monitored on a routine basis.
[…] Panselective TGF-β-neutralizing antibody (R&D Systems) was administered by intraperitoneal injection according to published protocol (70). Isotype-matched control antibody (R&D Systems) was administered to control mice as described above.
Three to five mice of each genotype were studied at the noted ages. For histologic and morphometric analyses, mouse lungs were inflated at a pressure of 25 cm H2O and fixed with 4% PFA in low molecular weight agarose. […]
Mean linear intercept measurements were performed on H&E-stained sections taken at intervals throughout both lungs. […] Mean chord lengths and mean linear intercepts were assessed by automated morphometry with a macro-operation performed by Metamorph Imaging Software (Universal Imaging, Molecular Devices). Mean airway thickness was measured directly using microscope-captured images at ×40 magnification. […]

`CCCCc1nc(Cl)c(CO)n1Cc1ccc(-c2ccccc2-c2nn[nH]n2)cc1` [losartan] was tested, and the “airspace caliber or histology in RA-exposed mice” value was “no change in airspace caliber or histology” and the “airspace caliber or histology in RA-exposed mice” value (listed as Losartan) was “does not affect airspace dimension”.
